Data source: PubChem BioAssay AID504808 (Drosophila RNAi Screening Center, 2011)
The screen tested about 21,000 reagents; below is a random part of those with a known target gene and a result. In the full data, 18 (0.084%) are marked active. 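Raw counts without plate normalisation, one of two replicates; the ratio scores behind the calls were not deposited.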 A number with no mark means an inactive call. A plus sign joins genes that one reagent is predicted to hit. No sequences are given here. The record does not give: the amount of reagent, the time to read-out.

Aim: 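Fly genes required to hold E2F transcription in check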 (primary screen)
Cell system: Drosophila S2 cells
Reagent: long dsRNA against Drosophila genes
Measured: 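Firefly luciferase driven by E2F sites, normalised to Renilla luciferase on the same minimal promoter, measured by plate reader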
Direction: E2F firefly: higher = more E2F reporter activity; Renilla normaliser: higher = more normaliser reporter signal
Active means: 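Called active if the normalised E2F reporter went up by over 50%; the cutoff is arbitrary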

gene	DRSC id	E2F firefly, rep 1	Renilla normaliser, rep 1
CG8401 (GeneID 36770)	DRSC07165	66832	3871
Non2 (GeneID 38341)	DRSC08272	82911	3431
CG11656 (GeneID 41600)	DRSC14338	73821	3784
CG16974 (GeneID 34713)	DRSC02551	90992	3520
E(Pc) (GeneID 36238)	DRSC05281	1.38e5	6391
E(Pc) (GeneID 36238)	DRSC07408	95442	4447
Kif19A (GeneID 41717)	DRSC16576	47506	3353
veil (GeneID 36968)	DRSC06892	80100	3496
FBXO11 (GeneID 41209)	DRSC16497	73571	3368
Cda9 (GeneID 36934)	DRSC06593	1.43e5	4673
Acp1 (GeneID 34052)	DRSC01854	1.50e5	4902
Csgalnact (GeneID 36079)	DRSC06228	1.38e5	4824
CG42232 (GeneID 7354465)	DRSC15018	70765	3756
CG42232 (GeneID 7354465)	DRSC15019	81907	4022
Lfg (GeneID 36418)	DRSC06853	1.06e5	4592
ArgRS (GeneID 32539)	DRSC20138	2.23e5	6719
beat-Vc (GeneID 41575)	DRSC12927	76828	2642
beat-Vc (GeneID 41575)	DRSC14849	1.33e5	5967
Gyc89Da (GeneID 42001)	DRSC15008	1.08e5	5441
sv (GeneID 43825)	DRSC17221	55869	4224
PXo (GeneID 38666)	DRSC09734	81714	3462
CG17202 (GeneID 41526)	DRSC15194	1.19e5	5448
CG5555 (GeneID 42302)	DRSC15834	81971	6232
CG7304 (GeneID 39713)	DRSC10804	1.61e5	9106
CG15368 (GeneID 31861)	DRSC18040	1.21e5	5400
CG5704 (GeneID 48613)	DRSC08572	74681	3848
Arpc2 (GeneID 35311)	DRSC02113	89748	3756
CG15308 (GeneID 50415)	DRSC17995	1.10e5	5098
mIF2 (GeneID 43382)	DRSC14510	1.04e5	5555
CG2906 (GeneID 35753)	DRSC06841	1.48e5	4538
Cht2 (GeneID 38223)	DRSC08650	63496	2971
unc-4 (GeneID 32757)	DRSC20381	1.69e5	6387
robl37BC (GeneID 35166)	DRSC02472	88426	3939
sphinx1 (GeneID 318005)	DRSC10993	1.03e5	4290
ox (GeneID 45401)	DRSC07520	97670	4162
CG13252 (GeneID 40289)	DRSC11700	1.48e5	7025
Tengl4 (GeneID 41321)	DRSC15620	1.37e5	6497
CG42450 (GeneID 32874)	DRSC20022	1.31e5	5534
wuho (GeneID 31566)	DRSC18101	97911	4810
p (GeneID 41025)	DRSC16560	1.33e5	6034
Mp20 (GeneID 36468)	DRSC07474	95701	4413
Mdr49 (GeneID 36428)	DRSC07466	114	32
CG15390 (GeneID 33422)	DRSC00404	1.53e5	5504
CG11379 (GeneID 31062)	DRSC18629	52090	3120
CG4951 (GeneID 43355)	DRSC15682	1482	952
NHP2 (GeneID 44005)	DRSC11229	1.48e5	7989
TpnC73F (GeneID 39916)	DRSC11307	1.48e5	8013
Dp (GeneID 36461)	DRSC07402	1213	199
Klp68D (GeneID 39332)	DRSC11206	80906	3892
CG34241 (GeneID 5740575)	DRSC09157	1.29e5	4845
MED19 (GeneID 39987)	DRSC10516	46797	210
CG4053 (GeneID 42070)	DRSC15538	1.29e5	6599
woc (GeneID 47249)	DRSC15928	1540	992
CCDC151 (GeneID 39345)	DRSC10131	1.35e5	6967
SmydA-9 (GeneID 31859)	DRSC17814	1.15e5	4950
Ubx (GeneID 42034)	DRSC16891	1.27e5	7254
CG8117 (GeneID 32499)	DRSC20082	1.46e5	6089
CG3168 (GeneID 31612)	DRSC18287	7176	796
Fancl (GeneID 41231)	DRSC14550	1.37e5	5808
CG12780 (GeneID 35834)	DRSC06169	1.37e5	4444
l(3)neo43 (GeneID 41851)	DRSC14988	1.07e5	6021
Inx7 (GeneID 33027)	DRSC18784	1.04e5	5020
CG5934 (GeneID 43289)	DRSC15922	1.13e5	6809
CG6481 (GeneID 32843)	DRSC19995	1.48e5	5349
betaTub65B (GeneID 117406)	DRSC11393	88727	3957
Gyc76C + CG42637	DRSC11180	78275	3153
CG14696 (GeneID 41317)	DRSC14919	1.25e5	6357
loaf (GeneID 39325)	DRSC09130	1.25e5	5628
CG13681 (retired record) (GeneID 38892)	DRSC08906	1.29e5	4828
CG13681 (retired record) (GeneID 38892)	DRSC08907	1.15e5	4547
CG13681 (retired record) (GeneID 38892)	DRSC10038	98556	5068
CG13681 (retired record) (GeneID 38892)	DRSC10039	1.04e5	3884
CG13681 (retired record) (GeneID 38892)	DRSC10927	1.02e5	4135
CG13681 (retired record) (GeneID 38892)	DRSC10929	76656	3607
TTLL6A (GeneID 37253)	DRSC06618	1.39e5	5019
CG5357 (retired record) (GeneID 37712)	DRSC04497	1.10e5	4166
CG30389 (GeneID 37410)	DRSC04077	66074	3090
CG30389 (GeneID 37410)	DRSC04452	99401	4536
CG31058 (retired record) (GeneID 43320)	DRSC15840	90715	3628
CG34427 (GeneID 5740165)	DRSC09978	96851	3560
CG8420 (GeneID 41097)	DRSC16418	1.26e5	5211
lectin-46Cb (GeneID 53522)	DRSC06611	1.40e5	4469
CG17141 (GeneID 42697)	DRSC15178	1.07e5	5481
CG34045 (GeneID 3885656)	DRSC05787	1.46e5	4605

Taken from above.
CG42232 (GeneID 7354465) [DRSC15018], E2F firefly, rep 1 → 70765
CG15368 (GeneID 31861) [DRSC18040], E2F firefly, rep 1 = 1.21e5
Value of CG5934 (GeneID 43289) [DRSC15922] under “Renilla normaliser, rep 1”: 6809
For “E2F firefly, rep 1”, SmydA-9 (GeneID 31859) [DRSC17814] is entered as 1.15e5
